Reference: patent US20250122301A1 (IBIO, published 2025)
No constants are given. Whether binding was seen depends on the method and setting. Some binding calls cover weakened binding; strength is not graded here.

Amino acid sequences for entries named in this document (tags omitted). A change or cut given only in a name is not applied to a line headed by its entry. Chains listed by the source or under a name are the forms on record and can include a tag or linker. Residues count along the entry.
UniProt P01589: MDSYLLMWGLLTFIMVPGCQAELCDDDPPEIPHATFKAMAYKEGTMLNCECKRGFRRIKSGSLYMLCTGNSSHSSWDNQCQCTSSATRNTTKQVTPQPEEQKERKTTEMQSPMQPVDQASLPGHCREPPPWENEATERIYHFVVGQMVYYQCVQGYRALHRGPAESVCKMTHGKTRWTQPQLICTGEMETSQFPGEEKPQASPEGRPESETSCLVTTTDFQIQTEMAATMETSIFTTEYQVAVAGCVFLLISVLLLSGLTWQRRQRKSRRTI
CD25 on CD25+ cells (SUDHL-1, HEK IL-2 reporter cells, primary human regulatory T cells): residues 22-272 of P01589
full-length CD25 (human CD25, recombinant protein used on biosensors): residues 22-213 of P01589
recombinant cynomolgus monkey (cyno) CD25 (H6WS54, form named): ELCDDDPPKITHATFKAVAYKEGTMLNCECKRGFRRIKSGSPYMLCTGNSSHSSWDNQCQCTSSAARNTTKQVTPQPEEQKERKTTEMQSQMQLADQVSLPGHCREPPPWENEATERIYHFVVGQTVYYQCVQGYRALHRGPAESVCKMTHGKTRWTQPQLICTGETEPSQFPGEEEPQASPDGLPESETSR

Experiments:
[1] = biological target: CD25 on CD25+ cells (SUDHL-1, HEK IL-2 reporter cells, primary human regulatory T cells) (human) (UniProt P01589); assay: flow cytometry, SUDHL-1 and HEK IL-2 reporter cells
[2] = biological target: full-length CD25 (human CD25, recombinant protein used on biosensors) (human) (UniProt P01589); assay: Octet BLI, IgG1 immobilised on AR2G, 300 nM full-length CD25
[3] = biological target: CD25 on CD25+ cells (SUDHL-1, HEK IL-2 reporter cells, primary human regulatory T cells) (human) (UniProt P01589); assay: flow cytometry, 10 ug/mL antibody, SUDHL-1 cells (CD25+)
[4] = biological target: CD25 on CD25+ cells (SUDHL-1, HEK IL-2 reporter cells, primary human regulatory T cells) (human) (UniProt P01589); assay: flow cytometry, 10 ug/mL antibody, HEK IL-2 reporter cells (CD25+)
[5] = biological target: full-length CD25 (human CD25, recombinant protein used on biosensors) (human) (UniProt P01589); assay: BLI (Octet RED384): antibody on AR2G sensor, 300 nM full-length CD25, 1:1 fit
[6] = biological target: full-length CD25 (human CD25, recombinant protein used on biosensors) (human) (UniProt P01589); assay: BLI (Octet) sandwich binning: antibody on AR2G sensor, full-length CD25, then competitor
[7] = biological target: recombinant cynomolgus monkey (cyno) CD25 (cynomolgus monkey) (UniProt H6WS54); assay: ELISA on coated recombinant cyno CD25, OD450
[8] = biological target: CD25 on CD25+ cells (SUDHL-1, HEK IL-2 reporter cells, primary human regulatory T cells) (human) (UniProt P01589); assay: flow cytometry dose response, SUDHL-1 cells (CD25+)

| Binder | binding [1] | binding [2] | binding [3] | binding [4] | binding [5] | binding [6] | binding [7] | binding [8] |
| --- | --- | --- | --- | --- | --- | --- | --- | --- |
| AH05251 (human IgG1 reformatted) (antibody, V domains shown) VH: EVRLQQSGAELVRSGASVKLSCTASGFNIKDYYIHWVKQRPEQGLEWIGWIDPDNGETEYAPKFQGKATMTADTSSNTAHLQLSSLTSEDTAVYYCTVFWYGNNYAGFAYWGQGTLVTVSS VL: DVVMTQTPLSLPVNLGDQASISCRSSQSIVHSNGNTYLEWYLQKPGQSPKLLIYKVSNRFSGVPDRFSGSGSGTDFTLKISRVEAEDLGIYYCFQGSHVPPTFGGGTKLEIK | binds | binds | binds | binds | binds | binds |  |  |
| D11 (human IgG1 reformatted) (antibody, V domains shown) VH: QIQLQQPGAELVRPGVSLKISCKGSGYTFTDYAMHWVRQSHAKSLEWIGVISTYSGDAIYNQKFKGKATMTVDKSSSTAYLELARLTSDDSAIYYCARGVTFDYWGQGTTVTVSS VL: DIQMTQTTSSLSASLGDRVTITCRASQDISNYLEWYQQKQGKSPQLLVYNAKTLAEGVPSRFSGSGSGTQFSLKINSLQPEDFGSYYCQHHYDTPYTFGGGTKLEIK |  | binds |  |  | binds |  | binds |  |
| D17 (human IgG1 reformatted) (antibody, V domains shown) VH: QIQLQQSGAELVRPGTSVKISCKASGYTFTNYWLGWVKQRPGHGLEWIGDIYPGGGYTNYNEKFKGKATLTADTSSSTAYMQLSSLTSEDSAVYFCARVTPASWGQGTTLTVSA VL: DILLTQSQKFMSTSVGDRVSVTCKASQNVGTNVAWYQQKPGQSPKALIYSASYRYSGVPDRFTGSGSGTDFTLTISNVQSEDLAEYFCQQYNSYPLTFGGGTKLEIK |  | binds |  |  | binds |  | binds |  |
| AH05259 (human IgG1 reformatted) (antibody, V domains shown) VH: QVQLQQSGAELVRPGVSVKISCKGSGYTFTDYAMHWVKQSHAKSLEWIGVISTYSGDVSYNQKFKGKATMTVDKSSSTAYMELARLTSEDSAIYYCARGVTFDSWGQGTSLTVSS VL: DIQMTQTPASLSASVGETVTITCRASENIYSFLEWFQQKQGKSPQLLVYNAKTLAEGVPSRFSVSGSGTQFSLKINSLQPEDFGSYYCQHHYGIPYTFGGGTKLEIK | binds | binds | binds | binds | binds |  |  |  |
| AH05268 (human IgG1 reformatted) (antibody, V domains shown) VH: QVQLQQSGAELVRPGVSLKISCKGSGYTFTDYAMHWVRQSHAKSLEWIGVISTYSGDALYNQKFKGKATMTVDKSSSTAYLELARLTSDDSAIYYCARGVTFDYWGQGTTLTVSS VL: DVQMTQSPSSMYASLGERVTFTCKASQDINRYLSWFQQKPGKSPKTLIYRANRLVDGVPSRFSGSGSGQNYSLTISSLEYEDMGIYYCLQYDEFPYTFGGGTKLEIK | binds | binds | binds | binds | binds |  |  | binds |
| D34 (human IgG1 reformatted) (antibody, V domains shown) VH: QVQLQQSGAELVRPGVSVKISCKGSGYTFTDYAMHWVKQSHAKSLEWIGVISTYSGDVSYNQKFKGKATMTVDKSSSTAYMELARLTSEDSAIYYCARGVTFDSWGQGTTVTVSS VL: DIQMTQSPASLSASVGETVTITCRASENSYSYLEWYQQKQGKSPQLLVYNAKTLAEGVPSRFSGSGSGTQFSLKINSLQPEDFGTYYCQHHYGTPYTFGGGTKLEIK |  | binds |  |  | binds | binds | binds |  |
| D36 (human IgG1 reformatted) (antibody, V domains shown) VH: QVQLQQPGAELVRPGVSLKISCKGSGYTFTDYAMHWVRQSHAKSLEWIGVISTYSGDALYNQKFKGKATMTVDKSSSTAYLELARLTSEDSAIYYCARGVTFDYWGQGTTLTVSS VL: DVVMTQSPASLSASVGETVTITCRASENSYSYLEWYQQKQGKSPQLLVYNAKTLAEGVPSRFSGSGSGTQFSLKINSLQPEDFGTYYCQHHYGTPYTFGGGTKLEMK |  | binds |  |  | binds |  | binds |  |

The next lines start with the values.

| binding [1] | binding [2] | binding [3] | binding [4] | binding [5] | binding [6] | binding [7] | binding [8] | Binder |
| --- | --- | --- | --- | --- | --- | --- | --- | --- |
| binds | binds |  | binds | binds |  | binds | binds | BP003-T2P1D7 (human IgG1 reformatted) (antibody, V domains shown) VH: QAYLQQSGAELVRSGASVKLSCTASGFNIKDYYIHWVKQRPEQGLEWIGWIDPDNGETEYAPKFQGKATMTADTSSNTAHLQLSSLTSEDTAVYYCTVFWYGNNYAGFAYWGQGTLVTVSA VL: DVVLTQTPLSLPVSLGDQASISCRSSQSIVHSNGNTYLEWYLQKPGQSPKLLIYKVSNRFSGVPDRFSGSGSGTDFTLKISKVEAEDLGVYYCFQGSHVPPTFGGGTKLEIK |
| binds |  |  |  | binds |  |  | binds | BP003-T2P1C4 (human IgG1 reformatted) (antibody, V domains shown) VH: QVQLQQSGAELVRPGTSVKISCKASGYTFTNYWLGWVKQRPGHGLEWIGDIYPGGGYTNYNEKFKGKATLTADTSSSTAYMQLSSLTSEDSAVYFCARVTPASWGQGTTVTVSS VL: DIQMTQSQKFMSASVGDRVSVTCKASQNVGTNVAWYQQKPGQSPKALIYSASYRYSGVPDRFTGSGSGTDFTLTISNVQSEDLAEYFCQQYNSYPYTFGGGTKLEMK |
| binds |  |  |  | binds |  | binds | binds | BP003-T2P1E3 (human IgG1 reformatted) (antibody, V domains shown) VH: QIQLQQSGAELVRPGTSVKMSCKAAGYTFTNYWIGWVKQRPGHGLEWIGDIHPGGGYTNYNEKFKGKATLTADTSSSTAYMQLSSLTSEDSAIYYCTSRNFAYWGQGTPVTVSS VL: DIVLTQSQKFMSTSVGDRVSVTCKASQNVGTNVAWYQQKPGQSPKALIYSASYRYSGVPDRFTGSGSGTDFTLTISNVQSEDLAEYFCQQYNSYPYTFGGGTKLEIK |
| binds |  | binds | binds | binds |  | binds | binds | BP003-T2P1D10 (human IgG1 reformatted) (antibody, V domains shown) VH: QIQLQQPGAELVRPGTSVKISCKASGYTFTNYWLGWVKQRPGHGLEWIGDIYPGGGYTNYNEKFKGKATLTADTSSSTAYMQLSSLTSEDSAVYFCARVTPASWGQGTSLTVSS VL: DIVITQSQKFMSTSVGDRVSVTCKASQNVGTNVAWYQQKPGQSPKALIYSASYRYSGVPDRLTGSGSGTDFTLTISNVQSEDLAEYFCQQYNRYPYTFGGGTKLEIK |
|  | binds |  |  | binds |  |  |  | AH04526 (human IgG1 reformatted) (antibody, V domains shown) VH: QVQLQQSGAELVRPGTSVKMSCKAAGYTFTNYWIGWVKQRPGHGLEWIGDIHPGGDYSNYNEKFKGKATLTADTSSSTAYMNLSSLTSEDSAIYYCTSRNFAYWGQGTPVTVSS VL: DTTVTQSQKFMSTSVGDRVSVTCKASQNVGTNVAWYQQKPGQSPKALIYSASYRYSGVPDRFTGSGSGTDFTLTISNVQSEDLAEYFCQQYNSYPYTFGGGTKLEMK |
|  | binds |  |  | binds | binds |  |  | AH04527 (human IgG1 reformatted) (antibody, V domains shown) VH: QVQLQQSGAELVRPGTSVKMSCKAAGYTFTNYWIGWVKQRPGHGLEWIGDIHPGGGYIDYNEKFTGKATLTADTSSSTAYMQLSSLTSEDSAIYYCVSRNFAKWGQGTLVTVSA VL: DVVMTQSQKFMSTSVGDRVSVTCKASQNVGTNVAWYQQKPGQSPKALIYSASYRYSGVPDRFTGSGSGTDFTLTISNVQSEDLAEYFCQQYNSYPYTFGGGTKLEIK |
| binds | binds | binds | binds | binds |  |  | binds | AH04750 (human IgG1 reformatted) (antibody, V domains shown) VH: QVQLQQPGAEMAKPGASVKMSCKASGYTSTAYWIHWVKQRPGQGLEWIGYITPSTGYTEYNQKFEDKATLTADKSSNTAYMQLNSLTSEDSAVYYCARGGYFDYWGQGTTVTVSS VL: DIQMTQTTSSLSASLGDRVTISCRASQDISNYLNWYQQKPDGTVKLLIYYTSRLHSGVPSRFSGSGSGTDYSLTISNLEQEDIATYFCQQGNTLPPTFGGGTKLEMK |
| binds | binds | binds | binds | binds | binds |  | binds | AH05256 (human IgG1 reformatted) (antibody, V domains shown) VH: QVQLQQPGAELAKPGASVKMSCKASGYTFTRYWIHWVKQRPGQDLEWIGYINPRTDYTEYNQKFKDKATLTADKSSSTAYMQLSSLTSDDSAVYYCARHGYFDYWGQGTTLTVSS VL: DIQMTQTTSSLSASLGDRVTISCRASQDISNYLNWYQQKPDGTVKLLIYHTSRLQSGVPSRFTGSGSGTDYSLTISNLEQEDIATYFCQQSNSLPPTFGGGTKLEIK |
| binds | binds | binds | binds | binds |  |  |  | BP003-T2P1D1 (human IgG1 reformatted) (antibody, V domains shown) VH: QVQLQQSGAELVRPGVSLKISCKGSGYTFTDYAMHWVRQSHAKSLEWIGVISTYSGDAIYNQKFKGKATMTVDKSSSTAYLELARLTSDDSAIYYCARGVTFDYWGQGTTVTVSS VL: DVVMTQSPASLSASVGETVTITCRASENSYSYLEWYQQKQGKSPQLLVYNAKTLAEGVPSRFSGSGSGTQFSLKINSLQPEDFGTYYCQHHYGTPYTFGGGTKLEIK |
